{"sequences": {"note": "By UniProt entry, the sequences of proteins in these tests, tags left out.", "UniProt Q03530, whole entry, looked up": "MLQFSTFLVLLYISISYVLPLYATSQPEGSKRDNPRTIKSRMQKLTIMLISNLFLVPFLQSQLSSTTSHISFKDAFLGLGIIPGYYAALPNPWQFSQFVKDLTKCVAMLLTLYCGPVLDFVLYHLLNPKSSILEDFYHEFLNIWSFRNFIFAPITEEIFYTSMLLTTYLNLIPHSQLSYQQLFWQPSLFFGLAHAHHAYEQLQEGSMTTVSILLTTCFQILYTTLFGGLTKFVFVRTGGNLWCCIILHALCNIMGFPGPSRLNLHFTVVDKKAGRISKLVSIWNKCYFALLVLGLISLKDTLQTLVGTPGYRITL"}, "source": "PubChem BioAssay AID2563", "about": "(Broad Institute, 2010)", "note": "The whole screen tested about 290,000 compounds, of which about 800 (0.28%) were called active. The inconclusive results got no clear call from the source; some entries with a clear call stand among them for comparison.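 How the source made its calls: active means fall in fluorescence gain of 50% or more versus controls, with final raw signal at or below 3038400; inconclusive means same 50% fall but final raw signal above 3038400; inactive means fall in fluorescence gain under 50%.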", "data": [{"target": "CAAX prenyl protease 2 (Saccharomyces cerevisiae (strain ATCC 204508 / S288c)) (UniProt Q03530)", "assay": "blockers of Rce1 CaaX peptide cleavage – biochemical, fluorescence, cell-free homogeneous, primary screen (AID 2563)", "settings": "yeast membranes, quenched prenylated peptide cleavage fluorescence", "values": [{"smiles": "CCO[C@H]1OC(C(=O)Nc2ccccc2)=C[C@@H](c2csc3ccccc23)[C@@H]1CCCO", "outcome": "active"}, {"smiles": "CC(C)(C)c1ccc2c(c1)N(CC(=O)O)C(=O)CO2", "outcome": "inactive"}, {"smiles": "COc1ccc(-c2ccnc3nc(Sc4ncc(C(F)(F)F)cc4Cl)nn23)cc1", "outcome": "inconclusive"}, {"smiles": "Cc1cc(C(=O)CSc2nnc(-c3ccccc3)n2-c2ccccc2)c(C)n1-c1ncn[nH]1", "outcome": "inactive"}, {"smiles": "O=C(O)CCc1ccc(-c2cccs2)n1Cc1ccco1", "outcome": "active"}, {"smiles": "CC1CCN(Cc2c(C(=O)N/N=C/c3cccc(C(F)(F)F)c3)nnn2-c2nonc2N)CC1", "outcome": "active"}, {"smiles": "CC1(C)Cc2c(c(N3CCOCC3)nc3sc4c(NCc5ccccc5)nnnc4c23)CS1", "outcome": "inactive"}, {"smiles": "CC(C)(C)C(=O)N1N=C(c2ccc(NS(C)(=O)=O)cc2)CC1c1cccs1", "note": "(configuration not stated)", "outcome": "inconclusive"}, {"smiles": "CCN(CCNS(=O)(=O)c1ccc2[nH]c(=O)sc2c1)c1ccccc1", "outcome": "inconclusive"}, {"smiles": "Cc1cccc2sc(N(CCN(C)C)C(=O)c3ccc4ccccc4c3)nc12", "outcome": "active"}, {"smiles": "Cc1cc(C)cc(OCC(=O)N2N=C(C(F)(F)F)CC2(O)C(C)(C)C)c1", "note": "(configuration not stated)", "outcome": "inactive"}, {"smiles": "COc1cc(C2Nc3ccc4ccccc4c3C3=C2C(=O)CC(C)(C)C3)ccc1OC(C)C(=O)O", "note": "(configuration not stated)", "outcome": "inconclusive"}, {"smiles": "O=C(c1nn(-c2ccccc2)c(=O)c2ccccc12)N1CCN(c2ncccn2)CC1", "outcome": "inactive"}, {"smiles": "O=C(Nc1cc(S(=O)(=O)N2CCCCC2)ccc1Cl)c1ccccc1NS(=O)(=O)c1ccc(F)cc1", "outcome": "active"}, {"smiles": "CCCCc1cc(=O)oc2c(CN(CC)CC)c(O)c(Cl)cc12", "outcome": "inconclusive"}, {"smiles": "O=C(NCCc1cccnc1)c1cc(COc2ccc(F)cc2Cl)on1", "outcome": "active"}, {"smiles": "CCCSc1cc(NCCOC(C)=O)c([N+](=O)[O-])c2nonc12", "outcome": "inactive"}, {"smiles": "COc1ccc(-c2c(-c3ccsc3)oc3ccc(N4CCOCC4)cc23)cn1", "outcome": "active"}, {"smiles": "C[n+]1ccc(/C=C/c2ccc(Br)cc2)cc1", "outcome": "inactive"}, {"smiles": "CCOc1cc(CNCc2ccccc2)ccc1OCC(=O)NC1CCCCC1", "outcome": "inactive"}, {"smiles": "COc1ccc(OC)c(/C=N/NC(=O)Cn2ccnc2C)c1", "outcome": "active"}, {"smiles": "O=C(CBr)Nc1c2c(nn1-c1ccccc1)CSC2", "outcome": "inactive"}, {"smiles": "COC(=O)/C=C/C(=O)N1CCN(c2ccccc2)CC1", "outcome": "inactive"}, {"smiles": "COC(C/C=C/[C@H](O)[C@@H](C)OCc1ccccc1)OC", "outcome": "active"}, {"smiles": "O=c1oc2cc(Oc3c([N+](=O)[O-])cc(C(F)(F)F)cc3[N+](=O)[O-])ccc2c2c1CCCC2", "outcome": "inconclusive"}, {"smiles": "CCC(C)(C)n1nnnc1C(c1cc2cc3c(cc2[nH]c1=O)OCO3)N1CCN(C)CC1", "note": "(configuration not stated)", "outcome": "inconclusive"}, {"smiles": "CCc1nnc(NS(=O)(=O)c2ccc(NC(=O)c3ccccc3O)cc2)s1", "outcome": "inconclusive"}]}]}
